For series [1] the following is noted: mice, single oral dose, escalating: 100-400 mg/kg for 6, 150-600 mg/kg for 15, 100-250 mg/kg for 25.
The conditions of series [2]: mouse, in vivo.
The test system of series [3] is human cell lines. Description: Toxicity to human cell lines.

Where two headings read alike, the source gives them in different places.

`CC(C)(CO)Cn1nc(-c2ccc3cc(OC4CC4)ccc3c2)c(C(N)=O)c1N` [Compound 6, 5-amino-3-(6-cyclopropoxynaphthalen-2-yl)-1-(3-hydroxy-2,2-dimethylpropyl)-1H-pyrazole-4-carboxamide]: in series [1], the “Observable signs of toxicity or distress” value is “no observable signs of toxicity or distress”. Further, in series [2] (100 mg/kg), the “Observable signs of toxicity” value is recorded as “Neither dose concentration showed any observable signs of toxicity” and the “White blood cell counts” value amounted to 1.5 ± 0.2 K/μL. Further, the “White blood cell counts” value in series [2] (200 mg/kg) stood at 1.5 ± 0.9 K/μL. Moreover, in series [3], the “Toxicity to human cell lines” value was “not toxic to a variety of human cell lines”.
